In PubChem BioAssay AID2551 (National Center for Advancing Translational Sciences (NCATS), 2010):
The whole screen tested about 310,000 compounds, of which about 17,000 (5.5%) were called active. Inconclusive means that the source gave no clear call. Such entries were picked first, then a sample of the others. Calls come from the whole dose curve; as a rule, active = well fitted inhibition curve with a large enough effect; inconclusive = small, poorly fitted or top-dose-only effect, or effect the other way; inactive = no such curve, though single readings can be large or run the other way. Potencies beside an inconclusive call are fits to weak or partial responses and may not hold up.

Protein sequences, listed by entry. Tags and fused reporters are not part of them. Lines headed by an entry give the natural chain unless they say otherwise; changes in a name come on top.
UniProt P51450: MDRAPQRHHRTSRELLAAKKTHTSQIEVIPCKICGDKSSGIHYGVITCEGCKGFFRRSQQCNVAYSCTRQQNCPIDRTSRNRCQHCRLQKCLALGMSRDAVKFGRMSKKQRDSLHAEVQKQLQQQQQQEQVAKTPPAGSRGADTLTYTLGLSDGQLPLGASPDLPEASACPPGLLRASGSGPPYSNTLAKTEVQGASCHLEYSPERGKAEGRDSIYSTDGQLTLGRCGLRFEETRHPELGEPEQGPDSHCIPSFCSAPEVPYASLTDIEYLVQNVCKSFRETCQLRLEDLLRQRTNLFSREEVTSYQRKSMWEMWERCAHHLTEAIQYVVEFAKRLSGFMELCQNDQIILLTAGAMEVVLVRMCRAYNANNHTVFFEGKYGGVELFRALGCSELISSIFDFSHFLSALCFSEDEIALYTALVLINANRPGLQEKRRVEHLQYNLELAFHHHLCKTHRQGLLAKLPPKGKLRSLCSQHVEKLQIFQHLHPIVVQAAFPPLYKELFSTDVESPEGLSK

What follows are molecules tested against Nuclear receptor ROR-gamma (Mus musculus) (UniProt P51450) (assay: qHTS for inhibitors of ROR gamma transcriptional activity). Conditions: Drosophila S2 Gal4-RORgamma UAS-luciferase reporter, 20 h; activity change, negative = inhibition: at 53.6 µM (top of the series).
Summary of the method: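 Luciferase reporter read in Schneider cells carrying Gal4-RORγ (mouse) and UAS-Photinus luciferase; cells given compound 1 h before 700 uM copper sulfate induction, then incubated 20 h at ambient temperature.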
% is set by controls: 0 for no effect and ±100 for the full control effect; potency is the fitted concentration of half-maximal effect.
Note: nearly all actives have a fitted effect of over 60% in size.

Row | SMILES | activity change, negative = inhibition | Potency
1 | O=C(NCc1ccc(F)cc1)c1cc(-c2cccs2)on1 | inactive: 12.2% | –
2 | COC(=O)c1cc2n(n1)CCN(Cc1ccccc1F)C2=O | – | inconclusive: 15.8 µM [activator, single point]
3 | COc1cc2c(cc1OC)CN(C(=O)/C=C/c1ccccc1[N+](=O)[O-])CC2 | inactive: -7.7% | –
4 | COc1ccc(NS(=O)(=O)c2ccc(C(=O)N3CCN(Cc4ccccc4)CC3)cc2)cc1 | – | inconclusive: 0.708 µM [activator, single point]
5 | Cn1cc(Cl)c(-c2n[nH]c(=S)n2C2CCCCC2)n1 | – | active: 6.31 µM
6 | COc1cc(NS(=O)(=O)c2ccc(C)cc2)ccc1-n1cnnn1 | – | inconclusive: 17.8 µM [activator, single point]
7 | CCOc1ccc(/C=c2\sc3nc(-c4ccco4)nn3c2=O)cc1OCC | – | inconclusive: 7.94 µM [activator, partial curve]
8 | Cc1cc(C)nc(NS(=O)(=O)c2ccc(NC(=O)c3ccc(S(=O)(=O)N4CCOCC4)cc3)cc2)n1 | – | inconclusive: 11.2 µM [activator, single point]
9 | CC(C)c1c(C(=O)N/N=C/c2ccc(C(F)(F)F)cc2)nnn1-c1nonc1N | – | inconclusive: 35.5 µM [activator, single point]
10 | O=C(CC1N=C2c3ccccc3N=C(SCc3ccc(Cl)cc3)N2C1=O)NCc1ccco1 (stereo not given) | – | inconclusive: 7.08 µM [activator, full curve, poor fit]
11 | Cc1cc(C)c(NC(=S)NC(=O)c2c(Cl)c(C)nn2C)c([N+](=O)[O-])c1 | – | active: 20 µM
12 | CCOc1cc(/C=C2/C(=N)N3C(=NC2=O)SN=C3S(C)(=O)=O)ccc1OS(=O)(=O)c1ccccc1 | inactive: 23.5% | –
13 | COc1ccc(NC(=O)OCCN2CCN(Cc3ccccc3)CCC2=O)cc1 | – | inconclusive: 17.8 µM [activator, partial curve, poor fit]
14 | COc1cc2c(OC(C)=O)c3c(c(-c4ccc5c(c4)OCO5)c2cc1OC)C(=O)OC3 | – | inconclusive: 7.94 µM [activator, partial curve]
15 | CCOc1ccc(C(C)(N)C(=O)O)cc1 (stereo not given) | inactive: -7.91% | –
16 | Cc1ccc(C(=O)CSc2nnc3ccccn23)c(C)c1 | – | inconclusive: 10 µM [inhibitor, partial curve]
17 | Cc1ccc(N2C(=O)C(Cc3ccccc3)NC2=S)cc1 (stereo not given) | – | inconclusive: 20 µM [inhibitor, single point]
18 | S=C1COC(c2ccccc2)N1c1ccccc1 (stereo not given) | – | inconclusive: 31.6 µM [activator, single point]
19 | O=C(CN(C(=O)c1csnn1)c1cccc(C(F)(F)F)c1)NCc1ccc(F)cc1 | – | inconclusive: 28.2 µM [activator, single point]
20 | CCN(C(=O)c1cc2ccccc2oc1=O)c1ccccc1 | – | inconclusive: 1.58 µM [activator, partial curve]
21 | Cc1c(NC(=O)Cc2ccccc2)cccc1C(=O)NN1C(=O)c2ccccc2C1=O | – | inconclusive: 0.1 µM [activator, full curve, poor fit]
22 | Cc1ccc2c(c1)C1CN(C)CCC1N2C(=S)Nc1ccc(Cl)cc1Cl (stereo not given) | – | inconclusive: 35.5 µM [inhibitor, single point]
23 | Cc1ccc(C(=O)N2CCC(C)CC2)cc1C | – | inconclusive: 6.31 µM [activator, single point]

Structures shown so far with four or more nitrogen atoms:
Row | SMILES | activity change, negative = inhibition | Potency
5 | Cn1cc(Cl)c(-c2n[nH]c(=S)n2C2CCCCC2)n1 | – | active: 6.31 µM
6 | COc1cc(NS(=O)(=O)c2ccc(C)cc2)ccc1-n1cnnn1 | – | inconclusive: 17.8 µM [activator, single point]
8 | Cc1cc(C)nc(NS(=O)(=O)c2ccc(NC(=O)c3ccc(S(=O)(=O)N4CCOCC4)cc3)cc2)n1 | – | inconclusive: 11.2 µM [activator, single point]
9 | CC(C)c1c(C(=O)N/N=C/c2ccc(C(F)(F)F)cc2)nnn1-c1nonc1N | – | inconclusive: 35.5 µM [activator, single point]
10 | O=C(CC1N=C2c3ccccc3N=C(SCc3ccc(Cl)cc3)N2C1=O)NCc1ccco1 (stereo not given) | – | inconclusive: 7.08 µM [activator, full curve, poor fit]
11 | Cc1cc(C)c(NC(=S)NC(=O)c2c(Cl)c(C)nn2C)c([N+](=O)[O-])c1 | – | active: 20 µM
12 | CCOc1cc(/C=C2/C(=N)N3C(=NC2=O)SN=C3S(C)(=O)=O)ccc1OS(=O)(=O)c1ccccc1 | inactive: 23.5% | –
19 | O=C(CN(C(=O)c1csnn1)c1cccc(C(F)(F)F)c1)NCc1ccc(F)cc1 | – | inconclusive: 28.2 µM [activator, single point]

Following part.

Row | SMILES | activity change, negative = inhibition | Potency
24 | CCOc1ccc(NC(=O)c2cc3n(n2)C(C(F)(F)F)CC(c2ccco2)N3)cc1 (stereo not given) | inactive: -4.41% | –
25 | Cc1cc(C(=O)C(C)OC(=O)C2=NNC(=O)CC2)c(C)n1-c1ccc(OC(F)F)cc1 (stereo not given) | – | inconclusive: 22.4 µM [activator, single point]
26 | O=C(Nc1cccc(O)c1)C1CCCN1C(=O)OCc1ccccc1 (stereo not given) | inactive: 21.5% [at 0.365 µM] | –
27 | Cc1ccc(CC2CC(=O)N(c3nc4ccccc4n3C)C2=O)cc1 (stereo not given) | – | active: 12.6 µM
28 | CC(C)NC(=O)COc1nncc2ccccc12 | inactive: -5.91% | –
29 | Cc1nc(SCc2ccc(Cl)c(Cl)c2)ncc1C(=O)O | – | inconclusive: 12.6 µM [activator, single point]
30 | CCn1c(N)c(C(=O)NCc2ccco2)sc1=S | inactive: 20.6% | –
31 | Cc1nnc(N2CCOCC2)c2ccccc12 | – | inconclusive: 35.5 µM [inhibitor, single point]
32 | Cc1ccc(-c2nc(N3CCOCC3)sc2C(=O)N2CCCCC2)cc1 | – | inconclusive: 3.55 µM [inhibitor, single point]
33 | COc1ccc(-c2noc(N3CCC(C(=O)NC(C)c4ccccc4)CC3)n2)cc1 (stereo not given) | inactive: 1.32% | –
34 | COc1ccc(CCN=C(N)NS(=O)(=O)c2ccc3ccccc3c2)cc1 | – | inconclusive: 12.6 µM [activator, single point]
35 | COc1cccc(/C=N/Nc2cc(C)nc(-c3ccccc3O)n2)c1O | – | inconclusive: 35.5 µM [inhibitor, single point]
36 | COCCN(C(=O)Nc1ccccc1)c1ccccc1C | – | inconclusive: 6.31 µM [inhibitor, single point]
37 | COc1ccc(C(=O)Nc2ccnn2C2CCN(C(=O)c3cccnc3)CC2)cc1 | inactive: 4.57% | –
38 | COc1ccc(NC(=O)CSc2nc3c(c(=O)n2-c2ccccc2OC)SCC3)cc1 | – | inconclusive: 6.31 µM [activator, single point]
39 | CCn1c(=O)c2cc(C(=O)Nc3ccccc3OC)sc2c2ccccc21 | inactive: -25.4% | –
40 | CC(C)c1ccc(NC2CCCN(C(=O)CCc3cnn(C)c3)C2)cc1 (stereo not given) | inactive: 1.64% | –
41 | Cc1ccc(Cn2c(=O)c3cccnc3n(CC(=O)Nc3cccc(C(F)(F)F)c3)c2=O)cc1 | inactive: 28.7% | –
42 | O=C(c1ccc(Cl)cc1)c1cnc2ccccn12 | – | inconclusive: 1.26 µM [activator, full curve, poor fit]
43 | Oc1cc(-n2cccn2)c(O)cc1-n1cccn1 | – | inconclusive: 35.5 µM [inhibitor, single point]
44 | Cc1csc(NC(=O)C2CCN(S(=O)(=O)c3cccs3)CC2)n1 | – | inconclusive: 11.2 µM [activator, partial curve]
45 | COC(=O)c1sccc1NC(=O)c1ccc(C)s1 | – | inconclusive: 22.4 µM [activator, single point]
